{"source": "PubChem BioAssay AID1224826 (NIAID, 2016)", "screen": "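Regulators of Tlr4 signalling leading to Tnf-alpha expression in macrophages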 (primary screen)", "cell system": "RAW264.7 G9 macrophages from mouse bearing reporters for p65 (GFP) and the Tnf promoter (mCherry)", "reagent": "siRNA pool against mouse genes, 100 nM", "timing": "16 h of LPS stimulation, after 2 days of siRNA transfection", "conditions": "bacterial lipopolysaccharide (Salmonella minnesota R595), 10 ng/ml", "measured": "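Imaged Tnf reporter mCherry in nuclei, minus background, normalised per plate to the median and expressed as robust z-scores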", "scale": "Tnf reporter robust z-score: higher = stronger Tnf promoter reporter signal after LPS", "rule for the call": "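Called active when robust z-score is at most -1.3, matching the median of the Tlr4 knock-down control, or over 3; control wells and wells with under 50 cells never active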", "meaning of the calls": "active = Tnf reporter clearly lowered or raised; inactive = no clear change in Tnf reporter", "note": "Here is an unselected part of about 17,000 deposited reagents. About 1,110 of all reagents (6.6%) count as active. 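Active means lowered or raised reporter signal; replicate intensities are raw and not normalised per plate.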 Entries without a mark were called inactive. A reagent listed more than once was tested more than once; the source does not tell the runs apart. Not all columns of the deposit are shown. No sequences are given here."}
{"Target gene":"Psmc6","fewer than 50 cells in well":"fewer than 50 cells per well; well left out of calls"}
{"Target gene":"9330169L03Rik","Tnf reporter robust z-score":-0.48,"fewer than 50 cells in well":"enough cells in well"}
{"Target gene":"Gne","Tnf reporter robust z-score":0.15,"fewer than 50 cells in well":"enough cells in well"}
{"Target gene":"Cts6","Tnf reporter robust z-score":-0.11,"fewer than 50 cells in well":"enough cells in well"}
{"Target gene":"Adra1b","Tnf reporter robust z-score":-0.25,"fewer than 50 cells in well":"enough cells in well"}
{"Target gene":"Adra1b","Tnf reporter robust z-score":0.55,"fewer than 50 cells in well":"enough cells in well"}
{"Target gene":"Cd55b","Tnf reporter robust z-score":1.75,"fewer than 50 cells in well":"enough cells in well"}
{"Target gene":"Gdf9","Tnf reporter robust z-score":0.24,"fewer than 50 cells in well":"enough cells in well"}
{"Target gene":"AW551984","Tnf reporter robust z-score":0.5,"fewer than 50 cells in well":"enough cells in well"}
{"Target gene":"Npc2","Tnf reporter robust z-score":-0.3,"fewer than 50 cells in well":"enough cells in well"}
{"Target gene":"Umod","fewer than 50 cells in well":"fewer than 50 cells per well; well left out of calls"}
{"Target gene":"Ppil2","Tnf reporter robust z-score":-0.75,"fewer than 50 cells in well":"enough cells in well"}
{"Target gene":"Pgf","Tnf reporter robust z-score":0.12,"fewer than 50 cells in well":"enough cells in well"}
{"Target gene":"Ccdc50","fewer than 50 cells in well":"fewer than 50 cells per well; well left out of calls"}
{"Target gene":"Hmgb4","fewer than 50 cells in well":"fewer than 50 cells per well; well left out of calls"}
{"Target gene":"A430072C10Rik","fewer than 50 cells in well":"fewer than 50 cells per well; well left out of calls"}
{"Target gene":"Ubxn8","Tnf reporter robust z-score":0.48,"fewer than 50 cells in well":"enough cells in well"}
{"Target gene":"Ccdc174","Tnf reporter robust z-score":0.4,"fewer than 50 cells in well":"enough cells in well"}
{"Target gene":"Pf4","Tnf reporter robust z-score":-0.48,"fewer than 50 cells in well":"enough cells in well"}
{"Target gene":"Lrg1","Tnf reporter robust z-score":-0.64,"fewer than 50 cells in well":"enough cells in well"}
{"Target gene":"Or9m1b","Tnf reporter robust z-score":-0.14,"fewer than 50 cells in well":"enough cells in well"}

In a second layout: 2 of the entries above.
AW551984
- Tnf reporter robust z-score: 0.5
- fewer than 50 cells in well: enough cells in well

Npc2
- Tnf reporter robust z-score: -0.3
- fewer than 50 cells in well: enough cells in well
